Results as given in US20120095185A1, “PROCESS FOR CHELATING COPPER IONS USING CB-TE2A BIFUNCTIONAL CHELATE” (NORDION (CANADA) INC., priority 2010, published 2012).

Experiment: Optimisation of Cu-64 radiolabeling of 13a and 13b to >95% radiochemical yield
Details: for CB-TE2A BFC (6a/6b) Concentration: concentration required for >95% radiochemical yield; for Temperature (optimized Cu-64 radiolabeling condition): to >95% radiochemical yield
From the text: As used herein, the terms “degree of complexation” and “percent complexation” are used interchangeably and are defined to mean the percentage of the ion that is successfully complexed with the bifunctional chelate. Here percent complexation is expressed as radiochemical yield, which is the yield of radiolabeled complex expressed as a fraction of the radioactivity originally present. The value of radiochemical yield obtained when making the ion complexes of the present reaction can be greater than 90% or greater than 95%, as measured by reverse phase chromatography (HPLC).
The conditions required to radiolabel 13a and 13b with Cu-64 in >95% radiochemical yield were optimized for pH, temperature and reaction time (Table 1). The exact same radioisotope lot, buffer solutions, and conditions were used for the reaction and the analysis of both 13a and 13b.
Cu-64 radiolabeled 13a and 13b are distinct species with different retention times by HPLC. The analysis was conducted with a Phenomenex hydrosynergy RPC18 column (4.6×150 mm) using a gradient of 98% trifluoracetic acid in water (0.01% v/v) 2% acetonitrile to 50% trifluoracetic acid in water (0.01% v/v) 50% acetonitrile over 30 min at 1 mL/min.

Compound	CB-TE2A BFC (6a/6b) Concentration	Temperature (optimized Cu-64 radiolabeling condition)
O=C(O)CN1CCCN2CCN(CCCN(C(CCc3ccc([N+](=O)[O-])cc3)C(=O)O)CC2)CC1 (stereo not shown) [13a]	As low as 6 μM	Room temperature (~20° C.)
O=C(O)CN1CCCN2CCN(CCCN(C(CCc3ccc([N+](=O)[O-])cc3)C(=O)O)CC2)CC1 (stereo not shown) [13b]	50 μM or higher	80 °C
